The source of these data is US20150141411A1, “SUBSTITUTED 3,4-DIHYDRO-2H-PYRIDO[1,2-A]PYRAZINE-1,6-DIONE DERIVATIVES USEFUL FOR THE TREATMENT OF (INTER ALIA) ALZHEIMER'S DISEASE” (Janssen Pharmaceuticals, Inc., priority 2012, published 2015).

Assay [1] deals with T1, γ-secretase (Homo sapiens, UniProt P49768). Kind of assay: Screening for γ-secretase-modulating activity: Aβ42 in supernatant of SKNBE2 cells carrying hAPP 695 wild type (Alphalisa). As to conditions: read-out: IC50 Aβ42, SKNBE2 human neuroblastoma cells carrying hAPP 695 wild type, overnight incubation, Aβ42 in cell supernatant. The protocol:
(§1) Screening was carried out using SKNBE2 human neuroblastoma cells carrying the hAPP 695—wild type, grown in Dulbecco's Modified Eagle's Medium/Nutrient mixture F-12 (DMEM/NUT-mix F-12) (HAM) provided by Invitrogen (cat no. 10371-029) containing 5% Serum/Fe supplemented with 1% non-essential amino acids, 1-glutamine 2 mM, Hepes 15 mM, penicillin 50 U/ml (units/ml) en streptomycin 50 μg/ml. Cells were grown to near confluency.
(§2) The screening was performed using a modification of the assay as described in Citron et al (1997) Nature Medicine 3: 67. […]
(§3) Aβtotal and Aβ42 concentrations were quantified in the cell supernatant using the Aphalisa technology (Perkin Elmer). […] To quantify the amount of Aβ42 in the cell supernatant, monoclonal antibody specific to the C-terminus of Aβ42 (JRF/cAβ42/26) was coupled to the receptor beads and biotinylated antibody specific to the N-terminus of Aβ (JRF/AβN/25) was used to react with the donor beads. To quantify the amount of Aβtotal in the cell supernatant, monoclonal antibody specific to the N-terminus of Aβ (JRF/AβN/25) was coupled to the receptor beads and biotinylated antibody specific to the mid region of Aβ (biotinylated 4G8) was used to react with the donor beads.
(§4) To obtain the values reported in Table 3, the data are calculated as percentage of the maximum amount of amyloid Beta 42 measured in the absence of the test compound. […]

The target in assay [2] is T1, γ-secretase. Briefly: Screening for γ-secretase-modulating activity: Aβtotal in supernatant of SKNBE2 cells carrying hAPP 695 wild type (Alphalisa). Conditions: read-out: IC50 Aβtotal, SKNBE2 human neuroblastoma cells carrying hAPP 695 wild type, overnight incubation, Aβtotal in cell supernatant. The protocol: as §1, §2, §3, §4

Structures were worked out from names or drawings and are uncertain.

Turning to `Cc1cn(-c2ccc3n(c2=O)C[C@@H](C)N(C(C)c2c[nH]c4ccc(Cl)cc24)C3=O)cn1` (stereo partly shown), the IC50 on γ-secretase [1] worked out at 930 nM; on γ-secretase [2], 7000 nM.

As to `Cc1cn(-c2ccc3n(c2=O)CC(C)N(C2Cc4ccccc4C2)C3=O)cn1` (single isomer, unassigned), the IC50 is 930 nM at γ-secretase [1] and above 10000 nM on γ-secretase [2].
